In publication PMC11502708:
These are yes or no findings as the source states them, for the method shown. Some entries that bind do so weakly or less than the wild type.

Target: T1, Pneumolysin, P0C2J9
T1 chain: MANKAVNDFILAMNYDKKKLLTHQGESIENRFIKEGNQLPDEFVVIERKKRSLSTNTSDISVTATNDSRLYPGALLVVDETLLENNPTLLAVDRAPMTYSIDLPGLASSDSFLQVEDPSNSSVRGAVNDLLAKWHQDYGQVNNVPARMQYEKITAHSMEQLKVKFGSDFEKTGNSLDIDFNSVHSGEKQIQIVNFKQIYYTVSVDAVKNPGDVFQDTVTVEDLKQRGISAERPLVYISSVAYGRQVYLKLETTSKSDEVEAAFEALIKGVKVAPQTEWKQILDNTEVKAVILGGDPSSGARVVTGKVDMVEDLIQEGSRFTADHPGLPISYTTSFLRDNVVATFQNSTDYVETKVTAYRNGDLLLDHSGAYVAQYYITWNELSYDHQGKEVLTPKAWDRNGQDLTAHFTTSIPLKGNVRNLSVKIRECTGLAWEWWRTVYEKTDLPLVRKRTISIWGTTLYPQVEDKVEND
Test: transmission electron microscopy (negative stain); sporadic observation: pneumolysin sprayed at too high a flow rate onto a lipid monolayer, salt residues on the surface, enough lipid then sprayed to form bilayers, covered with glycerol; five days of incubation; 1% uranyl acetate; both purified
Details: remark: other sources report otherwise

B1: Pneumolysin, P0C2J9 1-471 (protein)
chain: T1 chain
In the case of B1, the binding is reported as “binds”.
